± gives the uncertainty stated by the source. Many of these values have a large error.
Experiment: self-splicing fitness, log relative to wild type (ln ratio); higher = more splicing; Tetrahymena group I intron in knt gene, E. coli kanamycin selection, DiMSum; sequences stand for … in CUCUCU…GGAGGGAAAAGUUAUCAGGCAUGCACCUGGUAGCUAGUCUUUAAACCAAUAGAUUGCAUCGGUUUAAAAGGCAAGACCGUCAAAUUGCGGGAAAGGGGUCAACAGCCGUUCAGUACCAAGUCUCAGGGGAAACUUUGAGAUGGCCUUGCAAAGGGUAUGGUAAUAAGCUGACGGACAUGGUCCUAACCACGCAGCCAAGUCCUAAGUCAACAGAUCUUCUGUUGAUAUGGAUGCAGUUCACAGACUAAAUGUCGGUCGGGGAAGAUGUAUUCUUCUCAUAAGAUAUAGUCGGACCUCUCCUUAAUGGGAGCUAGCGGAUGAAGUGAUGCAACACUGGAGCCGCUGGGAACUAAUUUGUAUGCGAAAGUAUAUUGAUUAGUUUUGGAGUACUCGUGGUCG
How it was run: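 A randomised library covering all eight P1ex-region intron nucleotides was built with the intron in the knt kanamycin-resistance gene on pET-22b(+) and held in E. coli BL21(DE3). Cells were grown overnight at 37°C or 30°C on LB agar, with or without 25 μg/mL kanamycin, plus 100 μg/mL carbenicillin, 50 μM IPTG and 0.2% rhamnose, and pooled colonies were amplicon-sequenced on an Illumina HiSeq 2500. DiMSum fitness is the error-weighted combination of wild-type-normalised replicate fold changes, kanamycin versus none.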

AUUUAGCAAUAUUACGAGCC
self-splicing fitness (ln) (37 °C): -2.72 ± 0.75

AAGAAGCAAUAUUACGAUAA
self-splicing fitness (ln) (30 °C): -1.11 ± 0.12 | self-splicing fitness (ln) (37 °C): -1.07 ± 0.15

AGGCAGCAAUAUUACGGAUG
self-splicing fitness (ln) (30 °C): -2.3 ± 0.1 | self-splicing fitness (ln) (37 °C): -2.58 ± 0.21

CUCGAGCAAUAUUACGACAC
self-splicing fitness (ln) (37 °C): -2.89 ± 0.53

UGUUAGCAAUAUUACGCUAC
self-splicing fitness (ln) (30 °C): -0.135 ± 1.2 | self-splicing fitness (ln) (37 °C): -0.595 ± 1

GAAAAGCAAUAUUACGCGAC
self-splicing fitness (ln) (30 °C): -1.78 ± 0.58

GGAUAGCAAUAUUACGGUCG
self-splicing fitness (ln) (30 °C): -0.0227 ± 0.077 | self-splicing fitness (ln) (37 °C): 0.199 ± 0.094

AGGGAGCAAUAUUACGAAGC
self-splicing fitness (ln) (37 °C): -1.33 ± 0.87

GCGAAGCAAUAUUACGACGC
self-splicing fitness (ln) (37 °C): -0.287 ± 0.92

CCAUAGCAAUAUUACGUGUG
self-splicing fitness (ln) (30 °C): -2.23 ± 0.09 | self-splicing fitness (ln) (37 °C): -1.07 ± 0.08

— the supplement of paper PMC7877785
